No constants are given. Whether binding was seen depends on the method and setting. Binding calls can cover weak binding; strength is not graded here. Sequences can lack the tags named with a protein.

In this assay the target is free tubulin (α/β-tubulin heterodimer) (bovine). Description: mass photometry.

B1: Saccharomyces cerevisiae Stu2 Δcc aa 1-648 (domain or fragment, UniProt P46675 1-648)
chain: MSGEEEVDYTTLPLEERLTYKLWKARLEAYKELNQLFRNSVGDISRDDNIQIYWRDPTLFAQYITDSNVVAQEQAIVALNSLIDAFASSSLKNAHNITLISTWTPLLVEKGLTSSRATTKTQSMSCILSLCGLDTSITQSVELVIPFFEKKLPKLIAAAANCVYELMAAFGLTNVNVQTFLPELLKHVPQLAGHGDRNVRSQTMNLIVEIYKVTGNNSDLLEEILFKKLKPIQVKDLHKLFAKVGDEPSSSKMLFEWEKRELEKKRSQEEEARKRKSILSNDEGEYQIDKDGDTLMGMETDMPPSKQQSGVQIDTFSMLPEETILDKLPKDFQERITSSKWKDRVEALEEFWDSVLSQTKKLKSTSQNYSNLLGIYGHIIQKDANIQAVALAAQSVELICDKLKTPGFSKDYVSLVFTPLLDRTKEKKPSVIEAIRKALLTICKYYDPLASSGRNEDMLKDILEHMKHKTPQIRMECTQLFNASMKEEKDGYSTLQRYLKDEVVPIVIQIVNDTQPAIRTIGFESFAILIKIFGMNTFVKTLEHLDNLKRKKIEETVKTLPNFSIASGSTHSTIETNKQTGPMENKFLLKKSSVLPSKRVASSPLRNDNKSKVNPIGSVASASKPSMVAANNKSRVLLTSKSLATPKN
As for B1, the binding result is reported as “binds”.

B2: Disordered domain of CKAP2 (amino acids 61-345) fused to EGFP (domain or fragment, UniProt Q3V1H1 61-345)
chain: QISRDQKMITSEDRVQEGKKVVKLKTEVADKENIESTVEKNCIPLKAGEVTSSEIHNSKDNVQAVQLLSTRDDLPGQTVTLDPACHHKDNKKMQMTAEKPKQDSNVSKKRVLGYYHGQIVQSKINSFRKLPSVKGESLTTTKKLPTTVSKAMKAQSEPANTVSVKASTTAAATKFADAKPVSTASKDTLVRPPIRSLHSSSHGAAKQGLSRPLANVTVRKGMLDKESHRSEPVVSVVKAGSSQAPSRSIASKDAARTDSSNTRLMVKPKDTDQRRYTIAGASVHR
Turning to B2, the binding entry is recorded as “no binding (tested: 10 or 20 nM)”.

Values taken from paper doi:10.1101/2025.09.02.673730.
